Measured values: patent US20180244787A1 (Sanofi, published 2018)
Numbering of substitutions follows the chain as printed. Names and notes keep the numbering of the source. Results are given in words; binding and its absence hold for the method and conditions named. Some entries that bind do so weakly or less than the wild type.

T1: recombinant human CXCR3 (human, UniProt P49682 1-368, limits assumed)
T1 construct: also called C-X-C motif chemokine receptor 3
T1 sequence (looked up): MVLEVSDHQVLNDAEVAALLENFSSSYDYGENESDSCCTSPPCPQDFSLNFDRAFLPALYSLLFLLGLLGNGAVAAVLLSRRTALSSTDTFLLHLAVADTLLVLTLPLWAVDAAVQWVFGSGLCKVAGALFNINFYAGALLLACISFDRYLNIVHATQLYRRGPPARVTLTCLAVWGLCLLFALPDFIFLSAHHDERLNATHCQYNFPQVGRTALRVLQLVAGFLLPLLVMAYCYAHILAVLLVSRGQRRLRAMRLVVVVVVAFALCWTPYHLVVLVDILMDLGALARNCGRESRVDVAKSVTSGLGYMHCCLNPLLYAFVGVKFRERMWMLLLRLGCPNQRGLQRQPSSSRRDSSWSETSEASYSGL

B1: 53Hu37 CDR variant VH N105F / VL N30R/S92R (antibody, V domains shown)
VH: EVQLLESGGGLVQPGGSLRLSCAASGFTFTSYAMSWVRQAPGKGLEWVATISHGGTYTYYPDSVKGRFTISRDNAKNTLYLQMNSLRAEDTAVYYCARHPIYSGFYQGYFDYWGQGTLVTVSS
VL: DIQLTQSPSFLSASVGDRVTITCRASSGVRYLYWYQQKPGKAPKLWIYFTSTLASGVPSRFSGSGSGNEYTLTISSLQPEDFATYYCQQFTRSPYTFGQGTKLEIK
B2: 53Hu37 CDR variant VH G54R/N105W / VL 53Hu37 (antibody, V domains shown)
VH: B1 VH with G54R, F105W
VL: B1 VL with R30N, R92S
B3: 53Hu37 CDR variant VH S103N / VL N30R/S92R (antibody, V domains shown)
VH: B1 VH with S103N, F105N
VL: B1 VL
B4: 53Hu37 CDR variant VH G54R/N105F / VL 53Hu37 (antibody, V domains shown)
VH: B1 VH with G54R
VL: B1 VL with R30N, R92S
B5: 53Hu37 CDR variant VH S103Q / VL N30R/S92R (antibody, V domains shown)
VH: B1 VH with S103Q, F105N
VL: B1 VL
B6: 53Hu37 CDR variant VH G54R/T56R/N105F / VL T91R (antibody, V domains shown)
VH: B1 VH with G54R, T56R
VL: B1 VL with R30N, T91R, R92S
B7: 53Hu37 CDR variant VH S103A / VL N30R/S92R (antibody, V domains shown)
VH: B1 VH with S103A, F105N
VL: B1 VL
B8: 53Hu37 CDR variant VH S103E / VL N30R/S92R (antibody, V domains shown)
VH: B1 VH with S103E, F105N
VL: B1 VL
B9: 53Hu37 CDR variant VH S103C / VL N30R/S92R (antibody, V domains shown)
VH: B1 VH with S103C, F105N
VL: B1 VL
B10: 53Hu37 CDR variant VH T56R/N105F / VL N30R/S92R (antibody, V domains shown)
VH: B1 VH with T56R
VL: B1 VL
B11: 53Hu37 CDR variant VH S103G / VL N30R/S92R (antibody, V domains shown)
VH: B1 VH with S103G, F105N
VL: B1 VL
B12: 53Hu37 CDR variant VH G54R/T56R/N105F / VL 53Hu37 (antibody, V domains shown)
VH: B1 VH with G54R, T56R
VL: B1 VL with R30N, R92S
B13: 53Hu37 CDR variant VH S103Y / VL N30R/S92R (antibody, V domains shown)
VH: B1 VH with S103Y, F105N
VL: B1 VL
B14: 53Hu37 CDR variant VH S103I / VL N30R/S92R (antibody, V domains shown)
VH: B1 VH with S103I, F105N
VL: B1 VL
B15: 53Hu37 CDR variant VH S103V / VL N30R/S92R (antibody, V domains shown)
VH: B1 VH with S103V, F105N
VL: B1 VL
B16: 53Hu37 CDR variant VH T56R/N105F / VL S92R (antibody, V domains shown)
VH: B1 VH with T56R
VL: B1 VL with R30N
B17: 53Hu37 CDR variant VH S103M / VL N30R/S92R (antibody, V domains shown)
VH: B1 VH with S103M, F105N
VL: B1 VL
B18: 53Hu37 CDR variant VH S103R / VL N30R/S92R (antibody, V domains shown)
VH: B1 VH with S103R, F105N
VL: B1 VL
B19: 53Hu37 CDR variant VH G54R/T56R/N105F / VL N30R/S92R (antibody, V domains shown)
VH: B1 VH with G54R, T56R
VL: B1 VL
B20: 53Hu37 CDR variant VH G54K/T56K/N105F / VL 53Hu37 (antibody, V domains shown)
VH: B1 VH with G54K, T56K
VL: B1 VL with R30N, R92S
B21: 53Hu37 CDR variant VH G54K/N105F / VL 53Hu37 (antibody, V domains shown)
VH: B1 VH with G54K
VL: B1 VL with R30N, R92S
B22: 53Hu37 CDR variant VH S103D / VL N30R/S92R (antibody, V domains shown)
VH: B1 VH with S103D, F105N
VL: B1 VL
B23: 53Hu37 CDR variant VH Y102H / VL S92R (antibody, V domains shown)
VH: B1 VH with Y102H, F105N
VL: B1 VL with R30N
B24: 53Hu37 CDR variant VH S103P / VL N30R/S92R (antibody, V domains shown)
VH: B1 VH with S103P, F105N
VL: B1 VL
B25: 53Hu37 CDR variant VH G54R/N105F / VL N30R/S92R (antibody, V domains shown)
VH: B1 VH with G54R
VL: B1 VL
B26: 53Hu37 CDR variant VH S103F / VL N30R/S92R (antibody, V domains shown)
VH: B1 VH with S103F, F105N
VL: B1 VL
B27: 53Hu37 CDR variant VH T56K/N105W / VL S92R (antibody, V domains shown)
VH: B1 VH with T56K, F105W
VL: B1 VL with R30N
B28: 53Hu37 CDR variant VH N105F / VL S92R (antibody, V domains shown)
VH: B1 VH
VL: B1 VL with R30N
B29: 53Hu37 CDR variant VH N105W / VL 53Hu37 (antibody, V domains shown)
VH: B1 VH with F105W
VL: B1 VL with R30N, R92S
B30: 53Hu37 CDR variant VH H53R/N105Q / VL 53Hu37 (antibody, V domains shown)
VH: B1 VH with H53R, F105Q
VL: B1 VL with R30N, R92S
B31: 53Hu37 CDR variant VH G54K/T56K/N105F / VL S92R (antibody, V domains shown)
VH: B1 VH with G54K, T56K
VL: B1 VL with R30N
B32: 53Hu37 CDR variant VH S103H / VL N30R/S92R (antibody, V domains shown)
VH: B1 VH with S103H, F105N
VL: B1 VL
B33: 53Hu37 CDR variant VH T56R/N105F / VL 53Hu37 (antibody, V domains shown)
VH: B1 VH with T56R
VL: B1 VL with R30N, R92S
B34: 53Hu37 CDR variant VH S103L / VL N30R/S92R (antibody, V domains shown)
VH: B1 VH with S103L, F105N
VL: B1 VL
B35: 53Hu37 CDR variant VH N105W / VL S92R (antibody, V domains shown)
VH: B1 VH with F105W
VL: B1 VL with R30N
B36: 53Hu37 CDR variant VH S103K / VL N30R/S92R (antibody, V domains shown)
VH: B1 VH with S103K, F105N
VL: B1 VL
B37: 53Hu37 CDR variant VH S103W / VL N30R/S92R (antibody, V domains shown)
VH: B1 VH with S103W, F105N
VL: B1 VL
B38: 53Hu37 CDR variant VH S103T / VL N30R/S92R (antibody, V domains shown)
VH: B1 VH with S103T, F105N
VL: B1 VL

Target: T1, recombinant human CXCR3
Assay: Biacore, recombinant human CXCR3

binding | Binder
binds | B1
binds | B2
binds | B3
binds | B4
binds | B5
binds | B6
binds | B7
binds | B8
binds | B9
binds | B10
binds | B11
binds | B12
binds | B13
binds | B14
binds | B15
binds | B16
binds | B17
binds | B18
binds | B19

binding | Binder
binds | B20
binds | B21
binds | B22
binds | B23
binds | B24
binds | B25
binds | B26
binds | B27
binds | B28
binds | B29
binds | B30
binds | B31
binds | B32
binds | B33
binds | B34
binds | B35
binds | B36
binds | B37
binds | B38
